Measurements reported in the supplement of paper PMC10849652.
The other results are listed elsewhere or left out.

Sequences of proteins named here, by UniProt entry; tags and fusion partners are left off. A change or cut given only in a name is not applied to a line headed by its entry.
UniProt P08603, whole entry, looked up: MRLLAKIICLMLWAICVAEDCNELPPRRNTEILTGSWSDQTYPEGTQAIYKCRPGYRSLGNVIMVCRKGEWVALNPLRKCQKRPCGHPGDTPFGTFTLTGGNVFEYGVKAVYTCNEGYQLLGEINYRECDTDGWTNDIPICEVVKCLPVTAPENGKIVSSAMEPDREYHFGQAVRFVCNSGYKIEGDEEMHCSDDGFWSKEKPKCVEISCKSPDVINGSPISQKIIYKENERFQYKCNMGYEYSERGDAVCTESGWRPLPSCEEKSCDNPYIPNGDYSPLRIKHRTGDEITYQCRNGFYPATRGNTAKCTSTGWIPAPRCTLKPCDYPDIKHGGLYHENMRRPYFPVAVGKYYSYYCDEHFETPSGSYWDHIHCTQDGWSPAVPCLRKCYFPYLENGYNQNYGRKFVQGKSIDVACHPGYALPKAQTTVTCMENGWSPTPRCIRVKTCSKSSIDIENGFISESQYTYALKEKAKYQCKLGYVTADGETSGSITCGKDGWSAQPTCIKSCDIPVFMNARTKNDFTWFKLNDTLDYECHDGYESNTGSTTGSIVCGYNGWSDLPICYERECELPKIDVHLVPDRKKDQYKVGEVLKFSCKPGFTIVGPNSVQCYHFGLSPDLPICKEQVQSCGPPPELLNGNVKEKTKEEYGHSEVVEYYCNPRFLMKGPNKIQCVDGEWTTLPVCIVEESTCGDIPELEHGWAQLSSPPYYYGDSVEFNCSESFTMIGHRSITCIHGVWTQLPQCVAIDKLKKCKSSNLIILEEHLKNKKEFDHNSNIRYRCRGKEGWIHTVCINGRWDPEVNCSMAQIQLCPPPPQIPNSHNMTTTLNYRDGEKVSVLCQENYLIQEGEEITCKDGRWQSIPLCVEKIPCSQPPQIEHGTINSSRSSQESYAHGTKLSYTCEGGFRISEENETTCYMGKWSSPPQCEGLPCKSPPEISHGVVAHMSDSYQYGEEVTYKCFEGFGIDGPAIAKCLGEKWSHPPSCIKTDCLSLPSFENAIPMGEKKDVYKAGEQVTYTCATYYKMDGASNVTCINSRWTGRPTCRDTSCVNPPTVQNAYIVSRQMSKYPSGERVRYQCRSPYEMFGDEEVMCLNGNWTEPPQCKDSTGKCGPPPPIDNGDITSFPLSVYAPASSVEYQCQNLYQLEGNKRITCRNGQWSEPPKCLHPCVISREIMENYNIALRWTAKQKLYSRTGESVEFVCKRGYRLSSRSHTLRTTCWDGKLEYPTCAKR
UniProt O14735: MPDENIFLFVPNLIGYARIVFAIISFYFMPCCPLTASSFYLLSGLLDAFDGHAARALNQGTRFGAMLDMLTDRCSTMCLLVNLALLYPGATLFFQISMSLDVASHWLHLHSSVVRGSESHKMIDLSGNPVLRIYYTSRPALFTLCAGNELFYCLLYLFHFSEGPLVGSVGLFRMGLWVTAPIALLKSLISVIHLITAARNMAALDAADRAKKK
UniProt Q99618: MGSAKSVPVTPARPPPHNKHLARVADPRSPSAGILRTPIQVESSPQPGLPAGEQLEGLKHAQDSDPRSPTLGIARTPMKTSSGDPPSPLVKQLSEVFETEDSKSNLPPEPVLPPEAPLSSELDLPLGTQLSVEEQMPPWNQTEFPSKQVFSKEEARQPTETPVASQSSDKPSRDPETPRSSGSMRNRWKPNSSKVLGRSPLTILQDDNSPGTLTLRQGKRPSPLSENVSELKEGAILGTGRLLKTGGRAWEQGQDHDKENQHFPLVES
UniProt Q6P2H3: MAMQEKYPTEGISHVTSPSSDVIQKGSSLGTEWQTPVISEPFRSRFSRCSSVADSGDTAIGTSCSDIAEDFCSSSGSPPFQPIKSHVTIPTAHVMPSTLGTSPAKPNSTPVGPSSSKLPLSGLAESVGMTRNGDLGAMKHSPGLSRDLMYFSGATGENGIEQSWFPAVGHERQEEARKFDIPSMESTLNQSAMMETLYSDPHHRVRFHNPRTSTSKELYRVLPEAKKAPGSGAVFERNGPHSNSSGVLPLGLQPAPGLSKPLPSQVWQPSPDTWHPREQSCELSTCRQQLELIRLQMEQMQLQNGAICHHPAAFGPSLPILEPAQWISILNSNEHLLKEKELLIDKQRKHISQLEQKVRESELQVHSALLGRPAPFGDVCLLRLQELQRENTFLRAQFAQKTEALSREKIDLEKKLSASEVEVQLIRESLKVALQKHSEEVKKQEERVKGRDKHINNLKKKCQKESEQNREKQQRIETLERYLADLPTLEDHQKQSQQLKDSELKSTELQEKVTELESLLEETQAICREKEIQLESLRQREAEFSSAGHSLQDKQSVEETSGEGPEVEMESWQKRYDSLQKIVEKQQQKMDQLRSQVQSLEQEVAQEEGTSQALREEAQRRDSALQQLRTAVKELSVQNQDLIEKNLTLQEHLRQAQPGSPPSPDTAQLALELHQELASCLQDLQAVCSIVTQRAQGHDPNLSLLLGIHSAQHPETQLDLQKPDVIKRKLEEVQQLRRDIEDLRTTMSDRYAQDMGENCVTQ
UniProt Q7Z7K6: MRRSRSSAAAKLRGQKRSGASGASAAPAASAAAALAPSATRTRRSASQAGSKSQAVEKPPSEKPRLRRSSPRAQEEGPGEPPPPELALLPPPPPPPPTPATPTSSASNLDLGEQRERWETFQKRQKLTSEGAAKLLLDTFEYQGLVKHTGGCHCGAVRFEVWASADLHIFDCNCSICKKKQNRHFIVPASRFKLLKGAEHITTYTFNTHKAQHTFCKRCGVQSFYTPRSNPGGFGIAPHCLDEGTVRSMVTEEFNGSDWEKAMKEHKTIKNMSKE
UniProt Q9UHN6: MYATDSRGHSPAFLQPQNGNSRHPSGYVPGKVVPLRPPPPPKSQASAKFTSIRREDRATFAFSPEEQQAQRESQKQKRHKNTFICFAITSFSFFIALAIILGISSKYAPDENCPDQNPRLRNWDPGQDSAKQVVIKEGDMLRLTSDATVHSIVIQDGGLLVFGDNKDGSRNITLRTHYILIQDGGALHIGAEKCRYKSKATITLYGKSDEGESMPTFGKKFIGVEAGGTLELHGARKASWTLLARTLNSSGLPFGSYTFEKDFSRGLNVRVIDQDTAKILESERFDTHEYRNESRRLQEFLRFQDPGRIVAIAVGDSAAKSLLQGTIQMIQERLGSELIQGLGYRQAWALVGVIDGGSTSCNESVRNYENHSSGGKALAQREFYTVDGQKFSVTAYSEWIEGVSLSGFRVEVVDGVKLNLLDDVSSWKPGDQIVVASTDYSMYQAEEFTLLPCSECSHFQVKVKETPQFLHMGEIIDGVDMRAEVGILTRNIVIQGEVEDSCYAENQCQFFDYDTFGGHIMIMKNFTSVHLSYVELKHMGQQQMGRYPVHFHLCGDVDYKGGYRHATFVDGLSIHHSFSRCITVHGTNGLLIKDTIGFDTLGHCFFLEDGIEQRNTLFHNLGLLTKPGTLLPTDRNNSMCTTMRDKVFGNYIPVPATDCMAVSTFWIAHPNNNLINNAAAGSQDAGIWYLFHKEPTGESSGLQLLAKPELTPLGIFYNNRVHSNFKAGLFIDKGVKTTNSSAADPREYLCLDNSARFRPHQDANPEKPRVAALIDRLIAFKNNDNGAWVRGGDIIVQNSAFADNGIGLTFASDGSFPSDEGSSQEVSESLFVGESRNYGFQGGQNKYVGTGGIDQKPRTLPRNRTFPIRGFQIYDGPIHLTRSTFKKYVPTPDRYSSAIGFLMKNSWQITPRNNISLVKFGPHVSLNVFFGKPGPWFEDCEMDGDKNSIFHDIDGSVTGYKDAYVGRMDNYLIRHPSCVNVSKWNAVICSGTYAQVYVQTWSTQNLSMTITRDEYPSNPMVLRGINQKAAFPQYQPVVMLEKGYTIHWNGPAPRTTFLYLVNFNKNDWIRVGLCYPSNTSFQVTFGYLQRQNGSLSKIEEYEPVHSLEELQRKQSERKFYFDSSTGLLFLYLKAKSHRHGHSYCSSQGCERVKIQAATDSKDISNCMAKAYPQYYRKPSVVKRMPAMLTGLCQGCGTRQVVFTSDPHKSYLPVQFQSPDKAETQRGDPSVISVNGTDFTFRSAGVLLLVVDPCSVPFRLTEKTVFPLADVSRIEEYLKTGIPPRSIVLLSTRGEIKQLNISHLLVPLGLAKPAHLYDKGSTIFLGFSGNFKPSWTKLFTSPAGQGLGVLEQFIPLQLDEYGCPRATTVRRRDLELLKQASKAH
UniProt Q8IYX8: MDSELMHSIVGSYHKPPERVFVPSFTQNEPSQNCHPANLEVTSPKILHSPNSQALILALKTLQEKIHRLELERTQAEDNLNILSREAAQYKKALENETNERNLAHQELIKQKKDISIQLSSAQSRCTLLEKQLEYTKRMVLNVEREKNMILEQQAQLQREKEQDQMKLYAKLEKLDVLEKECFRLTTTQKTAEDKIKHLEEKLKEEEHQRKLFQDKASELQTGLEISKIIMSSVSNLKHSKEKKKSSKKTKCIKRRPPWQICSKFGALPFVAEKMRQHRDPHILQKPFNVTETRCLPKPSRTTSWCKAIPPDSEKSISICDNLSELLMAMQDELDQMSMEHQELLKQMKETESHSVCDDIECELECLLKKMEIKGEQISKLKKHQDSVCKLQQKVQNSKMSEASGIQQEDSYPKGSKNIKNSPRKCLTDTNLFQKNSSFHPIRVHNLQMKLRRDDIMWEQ
UniProt Q16667, whole entry, looked up: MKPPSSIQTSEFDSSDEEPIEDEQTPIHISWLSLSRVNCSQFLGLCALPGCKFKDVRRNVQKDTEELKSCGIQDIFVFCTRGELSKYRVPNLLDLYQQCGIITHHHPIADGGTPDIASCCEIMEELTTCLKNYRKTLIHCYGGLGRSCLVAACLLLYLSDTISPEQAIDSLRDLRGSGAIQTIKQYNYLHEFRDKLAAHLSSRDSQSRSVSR
UniProt Q9BUX1: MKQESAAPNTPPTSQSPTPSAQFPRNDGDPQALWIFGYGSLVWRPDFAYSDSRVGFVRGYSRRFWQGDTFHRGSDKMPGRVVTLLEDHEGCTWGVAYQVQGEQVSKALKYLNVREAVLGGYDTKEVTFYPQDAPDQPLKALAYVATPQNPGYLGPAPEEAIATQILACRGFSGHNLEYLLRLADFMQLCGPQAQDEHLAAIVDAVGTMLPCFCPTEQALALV
UniProt Q9Y592: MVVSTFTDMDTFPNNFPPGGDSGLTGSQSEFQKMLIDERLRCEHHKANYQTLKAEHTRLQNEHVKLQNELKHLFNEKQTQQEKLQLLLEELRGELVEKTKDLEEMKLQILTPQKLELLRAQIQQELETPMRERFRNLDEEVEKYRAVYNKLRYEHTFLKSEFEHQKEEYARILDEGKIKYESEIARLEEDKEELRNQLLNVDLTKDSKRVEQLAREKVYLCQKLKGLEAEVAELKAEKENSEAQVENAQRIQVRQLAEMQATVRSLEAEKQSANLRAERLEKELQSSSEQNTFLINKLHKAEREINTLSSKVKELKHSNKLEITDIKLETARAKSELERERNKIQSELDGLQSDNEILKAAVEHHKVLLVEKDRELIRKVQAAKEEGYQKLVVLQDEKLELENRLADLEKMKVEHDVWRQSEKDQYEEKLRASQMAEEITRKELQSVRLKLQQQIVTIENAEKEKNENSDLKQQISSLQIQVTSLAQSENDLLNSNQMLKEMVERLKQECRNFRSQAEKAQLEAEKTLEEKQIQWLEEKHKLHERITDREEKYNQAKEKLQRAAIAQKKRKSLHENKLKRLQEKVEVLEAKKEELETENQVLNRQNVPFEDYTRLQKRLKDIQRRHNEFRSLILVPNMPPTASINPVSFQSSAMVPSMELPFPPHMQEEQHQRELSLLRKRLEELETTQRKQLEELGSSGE
UniProt P30304: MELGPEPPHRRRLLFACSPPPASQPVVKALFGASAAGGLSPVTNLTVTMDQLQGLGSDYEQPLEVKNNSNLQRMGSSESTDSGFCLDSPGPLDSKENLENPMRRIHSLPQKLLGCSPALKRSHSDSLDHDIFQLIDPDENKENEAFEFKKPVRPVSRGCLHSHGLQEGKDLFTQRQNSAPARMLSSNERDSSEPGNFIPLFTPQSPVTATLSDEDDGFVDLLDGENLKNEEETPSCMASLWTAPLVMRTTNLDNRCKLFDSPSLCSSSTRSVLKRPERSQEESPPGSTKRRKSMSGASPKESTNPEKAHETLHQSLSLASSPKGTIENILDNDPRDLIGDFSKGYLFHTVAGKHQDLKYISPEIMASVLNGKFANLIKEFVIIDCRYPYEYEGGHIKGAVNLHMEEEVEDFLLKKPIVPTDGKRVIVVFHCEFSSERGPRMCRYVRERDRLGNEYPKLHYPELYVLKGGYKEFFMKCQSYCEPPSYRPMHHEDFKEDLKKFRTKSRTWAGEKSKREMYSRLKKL
UniProt Q6IPU0: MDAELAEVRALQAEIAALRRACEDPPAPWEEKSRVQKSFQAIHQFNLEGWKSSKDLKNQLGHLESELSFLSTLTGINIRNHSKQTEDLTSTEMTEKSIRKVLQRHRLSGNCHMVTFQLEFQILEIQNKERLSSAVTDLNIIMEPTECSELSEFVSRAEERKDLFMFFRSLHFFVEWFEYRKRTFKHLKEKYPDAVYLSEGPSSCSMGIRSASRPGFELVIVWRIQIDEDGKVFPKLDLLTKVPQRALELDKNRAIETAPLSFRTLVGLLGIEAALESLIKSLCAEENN

Assays:
Assay in all cases: log2 fold change, soluble protein after heating vs DMSO (PISA); higher = thermal stabilisation; K562 lysate, 10 uM; active = over 0.2 and 3.5 SD of the protein, either way, in both replicates (recomputed)
ibrutinib = compound: C=CC(=O)N1CCC[C@@H](n2nc(-c3ccc(Oc4ccccc4)cc3)c3c(N)ncnc32)C1 [ibrutinib]
Summary of the method: (§1)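 Values give the log-two fold change in thermal stability against solvent controls, from duplicates. Crude K562 extract at 1 mg/mL protein, made by dounce homogenisation in PBS pH 7.4 with 1 mM MgCl2, was treated with 10 μM compound for 30 min. After 3 min heating across 48°C-58°C, aliquots were pooled, adjusted to 0.5% NP-40 at 4°C and centrifuged at 21,000xg for 90 min. The supernatant was measured by TMTpro 16plex LC-MS/MS with channel sums equalised.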

[1] = compound: CC(=O)c1cnc2ccc(-c3cc(Cl)c(O)c(Cl)c3)nc2c1N[C@H]1CC[C@H](CN(C)C)CC1
Summary of the method: as §1

ralimetinib = compound: CC(C)(C)Cn1c(N)nc2ccc(-c3[nH]c(C(C)(C)C)nc3-c3ccc(F)cc3)nc21 [ralimetinib]
Summary of the method: as §1

[2] = compound: CC(C)(O)CC(=O)NCCn1ccc2ncnc(Nc3ccc(Oc4cccc(C(F)(F)F)c4)c(Cl)c3)c21
Summary of the method: as §1

[3] = compound: CC(C)C1=C2N=C(C=C(N2N=C1)NCC3=CC=CC=C3)NCCCCCCN
Summary of the method: as §1

[4] = compound: CC1=C(C(CC(=O)N1)C2=CC=C(C=C2)C(F)(F)F)C(=O)NC3=C(C=C4C(=C3)C=NN4)F
Summary of the method: as §1

[5] = compound: CC1=C(C2=C(C=C1)C(=O)C3=CC=CC=C3N2CCCN)C
Summary of the method: as §1

[6] = compound: CC1=C(C=C(C=C1)NC(=O)C2=CC(=CC=C2)C(C)(C)C#N)NC3=CC4=C(C=C3)N=CN(C4=O)C
Summary of the method: as §1

[7] = compound: CC1=C(C=C(C=C1)NC(=O)C2=CC(=CC=C2)N(C)C)NC(=O)C3=CC=C(C=C3)O
Summary of the method: as §1

[8] = compound: CC1=CC=C(C=C1)SC2=C3C=C(SC3=CN=C2)C(=O)N
Summary of the method: as §1

vemurafenib = compound: CCCS(=O)(=O)Nc1ccc(F)c(C(=O)c2c[nH]c3ncc(-c4ccc(Cl)cc4)cc23)c1F [vemurafenib]
Summary of the method: as §1

[9] = compound: CCCS(=O)(=O)Nc1ccc(F)c(C(=O)c2c[nH]c3ncc(Cl)cc23)c1F
Summary of the method: as §1

barasertib = compound: CCN(CCCOc1ccc2c(Nc3cc(CC(=O)Nc4cccc(F)c4)[nH]n3)ncnc2c1)CCOP(=O)(O)O [barasertib]
Summary of the method: as §1

[10] = compound: CC[C@@H]1C(=O)N(C)c2cnc(Nc3ccc(C(=O)NC4CCN(C)CC4)cc3OC)nc2N1C1CCCC1
Summary of the method: as §1

volasertib = compound: CC[C@@H]1C(=O)N(C)c2cnc(Nc3ccc(C(=O)N[C@H]4CC[C@H](N5CCN(CC6CC6)CC5)CC4)cc3OC)nc2N1C(C)C [volasertib]
Summary of the method: as §1

[11] = compound: CCn1c(C(=O)N(C2CC2)C2CC2)cc2c3c(ncn3C)c(Nc3cc(C)n(C)n3)nc21
Summary of the method: as §1

[12] = compound: CCn1cc(-c2ccnc3[nH]c(-c4cccc(CN(C)C)c4)cc23)c(-c2ccc(NC(=O)N(C)C)cc2)n1
Summary of the method: as §1

[13] = compound: CN1CCC(CNc2ccc3ncc(-c4cccc(OC(F)(F)F)c4)n3n2)CC1
Summary of the method: as §1

saracatinib = compound: CN1CCN(CCOc2cc(OC3CCOCC3)c3c(Nc4c(Cl)ccc5c4OCO5)ncnc3c2)CC1 [saracatinib]
Summary of the method: as §1

sotrastaurin = compound: CN1CCN(c2nc(C3=C(c4c[nH]c5ccccc45)C(=O)NC3=O)c3ccccc3n2)CC1 [sotrastaurin]
Summary of the method: as §1

Measured: log2 fold change

CFH (UniProt P08603)
inactive: ibrutinib -0.021 | [1] -0.03 | ralimetinib -0.095 | [2] -0.072 | [3] -0.003 | [4] 0.134 | [5] 0.005 | [6] -0.038 | [7] 0.015 | [8] -0.043 | vemurafenib 0.021 | [9] 0.034 | barasertib 0 | [10] 0.024 | volasertib 0.108 | [11] 0.006 | [12] 0.122 | [13] -0.087 | saracatinib -0.096 | sotrastaurin 0.047

CDIPT (UniProt O14735)
inactive: ibrutinib -0.013 | [1] 0.026 | ralimetinib -0.036 | [2] -0.031 | [3] -0.036 | [4] 0.031 | [5] 0.022 | [6] -0.101 | [7] 0.016 | [8] 0.043 | vemurafenib 0.044 | [9] -0.018 | barasertib 0.041 | [10] -0.016 | volasertib -0.023 | [11] 0.028 | [12] 0.045 | [13] -0.063 | saracatinib 0.036 | sotrastaurin 0.018

CDCA3 (UniProt Q99618)
inactive: ibrutinib 0.047 | [1] -0.022 | ralimetinib -0.016 | [2] -0.04 | [3] -0.005 | [4] -0.02 | [5] -0.003 | [6] 0.008 | [7] -0.01 | [8] -0.059 | vemurafenib 0.01 | [9] -0.002 | barasertib -0.016 | [10] 0.064 | volasertib 0.031 | [11] -0.077 | [12] -0.074 | [13] 0.062 | saracatinib 0.016 | sotrastaurin -0.042

CEP85 isoform 2 (UniProt Q6P2H3)
inactive: ibrutinib -0.004 | [1] -0.053 | ralimetinib -0.023 | [2] -0.007 | [3] 0.004 | [4] 0.076 | [5] 0 | [6] -0.032 | [7] 0.02 | [8] 0.043 | vemurafenib 0.016 | [9] 0.145 | barasertib 0.001 | [10] 0.078 | volasertib -0.031 | [11] 0.007 | [12] 0.159 | [13] -0.078 | saracatinib 0.043 | sotrastaurin 0.001

CENPV (UniProt Q7Z7K6)
inactive: ibrutinib 0.036 | ralimetinib 0.352 | [2] -0.235 | [4] 0.182 | [6] 0.121 | [7] -0.13 | vemurafenib -0.104 | barasertib 0 | [10] -0.033 | [11] 0.19 | [12] 0.264 | [13] -0.004 | sotrastaurin 0.007

CEMIP2 (UniProt Q9UHN6)
inactive: ibrutinib -0.043 | [1] 0.028 | ralimetinib -0.015 | [2] 0.053 | [3] -0.071 | [5] 0.005 | [6] 0.025 | [7] -0.066 | [8] 0.028 | vemurafenib -0.044 | [9] 0.062 | barasertib 0.063 | [10] 0.117 | volasertib 0.003 | [11] 0.025 | [12] 0 | [13] 0.039 | saracatinib 0.042 | sotrastaurin -0.004

CEP57L1 (UniProt Q8IYX8)
inactive: ibrutinib -0.039 | ralimetinib 0.171 | [2] -0.272 | [3] -0.049 | [4] 0.11 | [5] -0.191 | [6] -0.037 | [7] -0.044 | barasertib -0.06 | [10] 0.227 | [11] 0.044 | [12] -0.028 | [13] -0.066 | saracatinib -0.065 | sotrastaurin -0.007

CDKN3 (UniProt Q16667)
inactive: ibrutinib 0.116 | barasertib 0.119 | [10] -0.053 | [12] -0.05 | [13] 0.038

CHAC1 (UniProt Q9BUX1)
inactive: ibrutinib -0.207 | [5] 0.152 | [6] 0.018 | vemurafenib -0.116 | barasertib 0.071 | saracatinib -0.214 | sotrastaurin 0.013

CEP83 (UniProt Q9Y592)
inactive: [1] -0.054 | ralimetinib 0.029 | [2] -0.087 | [3] 0.04 | [4] 0.112 | [6] 0.037 | [7] -0.036 | [8] -0.033 | vemurafenib -0.052 | [9] -0.003 | volasertib 0.049 | [11] -0.022 | [12] 0.031 | [13] 0.002 | sotrastaurin -0.076

CDC25A (UniProt P30304)
inactive: [1] -0.009 | ralimetinib 0.014 | [2] -0.044 | [3] 0.019 | [4] -0.017 | [5] 0.012 | [6] 0.087 | [7] 0.015 | [8] 0.002 | [9] 0.038 | volasertib -0.053 | [11] 0.033 | saracatinib -0.022 | sotrastaurin 0.092

CENPP (UniProt Q6IPU0)
inactive: [1] 0.009 | ralimetinib 0 | [2] -0.002 | [3] -0.041 | [4] 0.168 | [5] -0.098 | [6] 0 | [7] -0.003 | [8] -0.037 | vemurafenib -0.001 | [9] 0.011 | [10] 0.038 | volasertib 0.096 | [11] 0.063 | [12] 0.033 | [13] 0.025 | saracatinib -0.196 | sotrastaurin -0.019

3 successive entries out of the list so far:
CDKN3 (UniProt Q16667)
inactive: ibrutinib 0.116 | barasertib 0.119 | [10] -0.053 | [12] -0.05 | [13] 0.038

CHAC1 (UniProt Q9BUX1)
inactive: ibrutinib -0.207 | [5] 0.152 | [6] 0.018 | vemurafenib -0.116 | barasertib 0.071 | saracatinib -0.214 | sotrastaurin 0.013

CEP83 (UniProt Q9Y592)
inactive: [1] -0.054 | ralimetinib 0.029 | [2] -0.087 | [3] 0.04 | [4] 0.112 | [6] 0.037 | [7] -0.036 | [8] -0.033 | vemurafenib -0.052 | [9] -0.003 | volasertib 0.049 | [11] -0.022 | [12] 0.031 | [13] 0.002 | sotrastaurin -0.076

(list continues)

CEP152 (UniProt O94986)
inactive: ibrutinib -0.077 | ralimetinib 0.144 | [2] -0.092 | [3] -0.062 | [4] -0.04 | [5] -0.071 | [6] 0.095 | [7] -0.067 | vemurafenib 0.031 | barasertib 0.106 | [10] 0.25 | [11] 0.008 | [12] -0.009 | [13] 0.272 | saracatinib 0.051 | sotrastaurin -0.039
